Publication PMC7960550
These are yes or no findings as the source states them, for the method shown. In cells and extracts the contact can be indirect. These calls come from enrichment with a bait or labelling near it, and not all partners need be listed. One block for each molecule: values may come before it.

The chains behind the UniProt entries cited, without tags or fusion partners.
UniProt P51784: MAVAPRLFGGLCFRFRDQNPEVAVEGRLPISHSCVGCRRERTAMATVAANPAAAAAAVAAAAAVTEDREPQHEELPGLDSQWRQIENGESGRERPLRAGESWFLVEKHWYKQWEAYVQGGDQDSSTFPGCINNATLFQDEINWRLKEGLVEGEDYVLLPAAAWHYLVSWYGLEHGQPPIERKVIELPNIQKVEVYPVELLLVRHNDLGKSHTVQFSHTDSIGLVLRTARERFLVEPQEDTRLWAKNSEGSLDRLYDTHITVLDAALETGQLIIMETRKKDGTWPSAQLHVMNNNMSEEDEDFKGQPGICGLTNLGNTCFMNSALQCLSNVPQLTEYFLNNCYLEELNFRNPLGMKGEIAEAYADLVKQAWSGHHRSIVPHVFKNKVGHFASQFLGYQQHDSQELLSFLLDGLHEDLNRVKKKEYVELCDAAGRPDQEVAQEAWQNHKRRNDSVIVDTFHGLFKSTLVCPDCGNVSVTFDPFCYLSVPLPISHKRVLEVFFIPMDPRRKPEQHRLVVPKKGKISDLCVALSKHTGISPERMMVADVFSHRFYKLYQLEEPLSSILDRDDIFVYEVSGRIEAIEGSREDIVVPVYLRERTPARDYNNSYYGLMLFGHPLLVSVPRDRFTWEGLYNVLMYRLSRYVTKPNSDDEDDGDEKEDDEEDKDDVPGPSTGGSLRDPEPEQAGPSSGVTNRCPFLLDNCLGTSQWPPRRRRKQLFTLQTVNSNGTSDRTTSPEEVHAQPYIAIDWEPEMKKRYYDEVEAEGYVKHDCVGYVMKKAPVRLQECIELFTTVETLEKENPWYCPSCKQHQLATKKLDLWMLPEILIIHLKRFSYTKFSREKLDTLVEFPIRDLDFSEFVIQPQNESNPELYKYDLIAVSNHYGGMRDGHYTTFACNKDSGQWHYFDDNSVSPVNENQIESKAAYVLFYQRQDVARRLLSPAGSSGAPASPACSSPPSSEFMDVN
UniProt Q93009: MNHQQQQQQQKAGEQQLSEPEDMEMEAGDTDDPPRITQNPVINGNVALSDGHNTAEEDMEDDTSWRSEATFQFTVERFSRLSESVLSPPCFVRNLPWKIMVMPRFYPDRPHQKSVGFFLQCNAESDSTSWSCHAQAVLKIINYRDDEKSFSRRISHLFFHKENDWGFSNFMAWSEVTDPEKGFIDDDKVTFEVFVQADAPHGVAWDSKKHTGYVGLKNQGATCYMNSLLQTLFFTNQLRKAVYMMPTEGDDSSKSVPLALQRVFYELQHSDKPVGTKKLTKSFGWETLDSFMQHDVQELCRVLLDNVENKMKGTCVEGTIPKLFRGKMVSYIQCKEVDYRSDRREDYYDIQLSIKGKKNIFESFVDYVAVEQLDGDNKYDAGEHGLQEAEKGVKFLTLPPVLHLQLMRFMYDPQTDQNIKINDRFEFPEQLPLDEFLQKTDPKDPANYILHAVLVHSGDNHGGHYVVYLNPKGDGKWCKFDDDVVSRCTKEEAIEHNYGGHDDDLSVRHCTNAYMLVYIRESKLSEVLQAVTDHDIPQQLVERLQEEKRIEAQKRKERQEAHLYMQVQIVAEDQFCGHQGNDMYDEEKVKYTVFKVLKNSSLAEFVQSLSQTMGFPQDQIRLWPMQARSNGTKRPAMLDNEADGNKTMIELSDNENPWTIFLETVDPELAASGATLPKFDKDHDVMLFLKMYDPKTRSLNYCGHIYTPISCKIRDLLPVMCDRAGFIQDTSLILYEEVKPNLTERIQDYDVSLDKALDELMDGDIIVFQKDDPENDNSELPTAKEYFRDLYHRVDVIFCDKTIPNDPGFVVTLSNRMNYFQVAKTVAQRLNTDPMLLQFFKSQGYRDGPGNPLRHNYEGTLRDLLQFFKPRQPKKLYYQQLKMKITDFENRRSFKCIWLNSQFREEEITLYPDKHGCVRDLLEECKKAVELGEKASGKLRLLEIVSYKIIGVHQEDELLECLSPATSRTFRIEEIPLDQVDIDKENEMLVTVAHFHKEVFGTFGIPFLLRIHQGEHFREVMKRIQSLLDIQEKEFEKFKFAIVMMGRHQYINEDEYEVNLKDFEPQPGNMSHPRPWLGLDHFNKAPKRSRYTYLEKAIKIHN

Key:
SFB-USP11 = SFB-USP11 (UniProt P51784); test: affinity purification with mass spectrometry; TAP-MS: SFB-tagged bait stably expressed in HEK 293T; lysate in NETN buffer (250 mM NaCl, 5 mM EDTA pH 8.0, 50 mM Tris-HCl pH 8.0, 0.5% Nonidet P-40); streptavidin-Sepharose beads, biotin elution, then S-protein-agarose beads; SFB-USP11 cells treated with 10 μM CPT for 2 h
[1] = molecular target: T1, SFB-SPRTN full-length (FL) (UniProt Q9H040); test: as above
T1 sequence: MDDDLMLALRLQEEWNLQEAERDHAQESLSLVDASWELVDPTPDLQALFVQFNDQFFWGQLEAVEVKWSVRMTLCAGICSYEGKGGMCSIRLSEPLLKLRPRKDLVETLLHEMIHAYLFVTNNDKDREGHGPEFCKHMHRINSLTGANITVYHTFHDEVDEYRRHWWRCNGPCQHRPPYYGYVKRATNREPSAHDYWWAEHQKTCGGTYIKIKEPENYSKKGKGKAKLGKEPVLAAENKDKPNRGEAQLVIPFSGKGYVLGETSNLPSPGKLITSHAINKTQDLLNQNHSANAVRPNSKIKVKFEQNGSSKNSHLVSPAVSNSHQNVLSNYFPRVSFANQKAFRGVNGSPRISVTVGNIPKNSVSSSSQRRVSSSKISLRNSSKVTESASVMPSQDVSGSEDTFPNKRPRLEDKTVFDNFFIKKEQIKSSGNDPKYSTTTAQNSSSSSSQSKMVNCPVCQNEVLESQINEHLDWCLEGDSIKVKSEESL

Molecule: Endogenous USP7 (from UniProt Q93009 1-1102)
binding (SFB-USP11): binds

Molecule: VCP (from UniProt P55072 1-806)
binding [1]: binds

Continued, values first:

binding [1]: binds
Molecule: Endogenous USP11 (from UniProt P51784 1-963)

binding [1]: binds
B1: POLD3 (protein, UniProt Q15054 1-466)
chain: MADQLYLENIDEFVTDQNKIVTYKWLSYTLGVHVNQAKQMLYDYVERKRKENSGAQLHVTYLVSGSLIQNGHSCHKVAVVREDKLEAVKSKLAVTASIHVYSIQKAMLKDSGPLFNTDYDILKSNLQNCSKFSAIQCAAAVPRAPAESSSSSKKFEQSHLHMSSETQANNELTTNGHGPPASKQVSQQPKGIMGMFASKAAAKTQETNKETKTEAKEVTNASAAGNKAPGKGNMMSNFFGKAAMNKFKVNLDSEQAVKEEKIVEQPTVSVTEPKLATPAGLKKSSKKAEPVKVLQKEKKRGKRVALSDDETKETENMRKKRRRIKLPESDSSEDEVFPDSPGAYEAESPSPPPPPSPPLEPVPKTEPEPPSVKSSSGENKRKRKRVLKSKTYLDGEGCIVTEKVYESESCTDSEEELNMKTSSVHRPPAMTVKKEPREERKGPKKGTAALGKANRQVSITGFFQRK
